The list shows only some results of the screen, not a fair sample: it gathers tests that were run many times, whatever their T/C, doses with no T/C, and many T/C values between a quarter and a half above the control. Other doses and runs of a compound stand elsewhere. T/C: endpoint of the treated group in % of that of the vehicle group. Some entries give survivors of the animals treated and no T/C: the source holds a T/C of zero for them, seemingly a mark for toxic or unscored doses. Some doses without a T/C left all or most animals alive at the check, yet need not have been tolerated: survival well below the control is almost never listed, so the zero probably covers shortened survival too. Counts of survivors are from the toxicity check (mostly the fifth day) where no day follows; animals may have died later. Schedules are NCI's codes, read here as Q, the interval in days (D) or hours (H), X, the number of doses. Some doses were run more than once; their values stand side by side, smallest first. Marks such as (2×) count equal records among those shown. Where survival is the endpoint, this PubChem deposit counts one and a half times the control or more as active, and values a quarter to a half above the control carry no call in these data; other NCI protocols may use other cut-offs. Some T/C values are followed by the survivors on the day toxicity was checked, most often the fifth; where none is given, no animal had died by that day. Some schedule codes hold Z or #, which are not explained here.
Tested on: L1210 leukemia ip in BDF1 mice, survival T/C
Experiment: NCI In Vivo Anticancer Drug Screen. Data for tumor model L1210 Leukemia (intraperitoneal) in B6D2F1 (BDF1) mice
Conditions: T/C endpoint: median survival time, higher T/C = longer survival
[1] = dose: 16.0 mg/kg/injection, schedule: Q01DX009 (ip), vehicle: saline
[2] = dose: 40.0 mg/kg/injection, schedule: Q04DX003 (ip), vehicle: saline

In the case of `N[C@@H](Cc1ccc(N(CCCl)CCCl)cc1)C(=O)O`, the T/C (dose: 1.0 mg/kg/injection, schedule: Q01DX009 (ip), vehicle: saline, evaluated on day 30) is reported as 137 % of control, the T/C (dose: 1.0 mg/kg/injection, schedule: Q01DX009 (ip), vehicle: saline, evaluated on day 33) is reported as 131 [6 of 8 alive], 143, 153 % of control and the T/C (dose: 2.0 mg/kg/injection, schedule: Q01DX009 (ip), vehicle: saline, evaluated on day 5) is reported as 106, 142, 167, 169, 174 % of control. For the same molecule, the T/C (dose: 2.0 mg/kg/injection, schedule: Q01DX009 (ip), vehicle: saline, evaluated on day 24) was 106 % of control [9 of 10 alive], the T/C (dose: 2.0 mg/kg/injection, schedule: Q01DX009 (ip), vehicle: saline, evaluated on day 30) was 142 % of control and the T/C (dose: 2.0 mg/kg/injection, schedule: Q01DX009 (ip), vehicle: saline, evaluated on day 33) was 168, 169, 175 % of control. The T/C (dose: 2.5 mg/kg/injection, schedule: Q01DX001 (ip), vehicle: Klucel (hydroxypropylcellulose) (HPC), evaluated on day 5) was 138 % of control, the T/C (dose: 2.5 mg/kg/injection, schedule: Q01DX001 (ip), vehicle: Klucel (hydroxypropylcellulose) (HPC), evaluated on day 60) was 133 and 138 % of control and the T/C (dose: 2.5 mg/kg/injection, schedule: Q01DX001 (ip), vehicle: saline, evaluated on day 5) was 116, 122, 133, 141 % of control. The T/C (dose: 2.5 mg/kg/injection, schedule: Q01DX001 (ip), vehicle: saline, evaluated on day 7) was 107, 112, 127 % of control, the T/C (dose: 2.5 mg/kg/injection, schedule: Q01DX001 (ip), vehicle: saline, evaluated on day 30) was 116 and 133 % of control and the T/C (dose: 2.5 mg/kg/injection, schedule: Q01DX001 (ip), vehicle: saline, evaluated on day 31) was 141 % of control. The T/C (dose: 2.5 mg/kg/injection, schedule: Q01DX001 (ip), vehicle: saline, evaluated on day 60) was 122 % of control, the T/C (dose: 2.5 mg/kg/injection, schedule: Q01DX001 (ip), vehicle: saline, evaluated on day 62) was 127 % of control and the T/C (dose: 2.5 mg/kg/injection, schedule: Q01DX001 (ip), vehicle: saline, evaluated on day 63) was 107 [7 of 8 alive] and 112 % of control. The T/C (dose: 2.5 mg/kg/injection, schedule: Q04DX003 (ip), vehicle: saline, evaluated on day 5) was 135 and 142 % of control, the T/C (dose: 2.5 mg/kg/injection, schedule: Q04DX003 (ip), vehicle: saline, evaluated on day 30) was 142 % of control and the T/C (dose: 2.5 mg/kg/injection, schedule: Q04DX003 (ip), vehicle: saline, evaluated on day 60) was 135 % of control. For the same molecule, the T/C (dose: 2.5 mg/kg/injection, schedule: Q##DX001 (ip), vehicle: Klucel (hydroxypropylcellulose) (HPC)) was 133 % of control, the T/C (dose: 4.0 mg/kg/injection, schedule: Q01DX009 (ip), vehicle: saline, evaluated on day 5) was 143, 144, 158, 161, 163 % of control and the T/C (dose: 4.0 mg/kg/injection, schedule: Q01DX009 (ip), vehicle: saline, evaluated on day 24) was 163 % of control. The T/C (dose: 4.0 mg/kg/injection, schedule: Q01DX009 (ip), vehicle: saline, evaluated on day 30) was 161 % of control, the T/C (dose: 4.0 mg/kg/injection, schedule: Q01DX009 (ip), vehicle: saline, evaluated on day 33) was 144 (2×) and 158 % of control and the T/C (dose: 5.0 mg/kg/injection, schedule: Q01DX001 (ip), vehicle: Klucel (hydroxypropylcellulose) (HPC)) was 146 % of control. The T/C (dose: 5.0 mg/kg/injection, schedule: Q01DX001 (ip), vehicle: saline, evaluated on day 5) was 125, 130, 140, 141 (2×), 145 % of control (2×), the T/C (dose: 5.0 mg/kg/injection, schedule: Q01DX001 (ip), vehicle: saline, evaluated on day 7) was 116, 117, 153 % of control and the T/C (dose: 5.0 mg/kg/injection, schedule: Q01DX001 (ip), vehicle: saline, evaluated on day 30) was 140 and 141 % of control. For the same molecule, the T/C (dose: 5.0 mg/kg/injection, schedule: Q01DX001 (ip), vehicle: saline, evaluated on day 31) was 145 % of control, the T/C (dose: 5.0 mg/kg/injection, schedule: Q01DX001 (ip), vehicle: saline, evaluated on day 33) was 130 % of control and the T/C (dose: 5.0 mg/kg/injection, schedule: Q01DX001 (ip), vehicle: saline, evaluated on day 47) was 145 % of control. The T/C (dose: 5.0 mg/kg/injection, schedule: Q01DX001 (ip), vehicle: saline, evaluated on day 60) was 125 and 141 % of control, the T/C (dose: 5.0 mg/kg/injection, schedule: Q01DX001 (ip), vehicle: saline, evaluated on day 62) was 153 % of control and the T/C (dose: 5.0 mg/kg/injection, schedule: Q01DX001 (ip), vehicle: saline, evaluated on day 63) was 116 and 117 % of control. The T/C (dose: 5.0 mg/kg/injection, schedule: Q04DX003 (ip), vehicle: saline, evaluated on day 5) was 151 and 162 % of control, the T/C (dose: 5.0 mg/kg/injection, schedule: Q04DX003 (ip), vehicle: saline, evaluated on day 30) was 162 % of control and the T/C (dose: 5.0 mg/kg/injection, schedule: Q04DX003 (ip), vehicle: saline, evaluated on day 60) was 151 % of control. For the same molecule, the T/C (dose: 5.0 mg/kg/injection, schedule: Q##DX001 (ip), vehicle: Klucel (hydroxypropylcellulose) (HPC)) was 146 % of control, the survivor count (dose: 6.0 mg/kg/injection, schedule: Q01DX009 (ip), vehicle: saline) was 8 of 8 and the T/C (dose: 8.0 mg/kg/injection, schedule: Q01DX009 (ip), vehicle: saline, evaluated on day 5) was 83, 93, 98, 108 % of control. For the same molecule, the T/C (dose: 8.0 mg/kg/injection, schedule: Q01DX009 (ip), vehicle: saline, evaluated on day 24) was 108 % of control, the T/C (dose: 8.0 mg/kg/injection, schedule: Q01DX009 (ip), vehicle: saline, evaluated on day 30) was 93 % of control and the T/C (dose: 8.0 mg/kg/injection, schedule: Q01DX009 (ip), vehicle: saline, evaluated on day 33) was 98 % of control. For the same molecule, the survivor count (dose: 8.0 mg/kg/injection, schedule: Q01DX009 (ip), vehicle: saline) was 8 of 8, the T/C (dose: 10.0 mg/kg/injection, schedule: Q01DX001 (ip), vehicle: saline, evaluated on day 5) was 140, 152, 157 (2×), 159, 161, 170 % of control and the T/C (dose: 10.0 mg/kg/injection, schedule: Q01DX001 (ip), vehicle: saline, evaluated on day 7) was 133, 144, 195 % of control. For the same molecule, the T/C (dose: 10.0 mg/kg/injection, schedule: Q01DX001 (ip), vehicle: saline, evaluated on day 30) was 152 and 157 % of control, the T/C (dose: 10.0 mg/kg/injection, schedule: Q01DX001 (ip), vehicle: saline, evaluated on day 31) was 170 % of control and the T/C (dose: 10.0 mg/kg/injection, schedule: Q01DX001 (ip), vehicle: saline, evaluated on day 33) was 159 % of control. The T/C (dose: 10.0 mg/kg/injection, schedule: Q01DX001 (ip), vehicle: saline, evaluated on day 47) was 157 % of control, the T/C (dose: 10.0 mg/kg/injection, schedule: Q01DX001 (ip), vehicle: saline, evaluated on day 60) was 140 and 161 % of control and the T/C (dose: 10.0 mg/kg/injection, schedule: Q01DX001 (ip), vehicle: saline, evaluated on day 62) was 195 % of control. For the same molecule, the T/C (dose: 10.0 mg/kg/injection, schedule: Q01DX001 (ip), vehicle: saline, evaluated on day 63) was 133 and 144 % of control, the T/C (dose: 10.0 mg/kg/injection, schedule: Q04DX003 (ip), vehicle: saline, evaluated on day 5) was 131 and 207 % of control and the T/C (dose: 10.0 mg/kg/injection, schedule: Q04DX003 (ip), vehicle: saline, evaluated on day 30) was 131 % of control. The T/C (dose: 10.0 mg/kg/injection, schedule: Q04DX003 (ip), vehicle: saline, evaluated on day 60) was 207 % of control, the T/C [1] was 60 and 61 % of control and the survivor count [1] was 6 of 8 and 7 of 8. The T/C (dose: 20.0 mg/kg/injection, schedule: Q01DX001 (ip), vehicle: Klucel (hydroxypropylcellulose) (HPC), evaluated on day 5) was 134 % of control, the T/C (dose: 20.0 mg/kg/injection, schedule: Q01DX001 (ip), vehicle: Klucel (hydroxypropylcellulose) (HPC), evaluated on day 60) was 134 % of control [7 of 10 alive] and the survivor count (dose: 20.0 mg/kg/injection, schedule: Q01DX001 (ip), vehicle: Klucel (hydroxypropylcellulose) (HPC)) was 5 of 10. For the same molecule, the T/C (dose: 20.0 mg/kg/injection, schedule: Q01DX001 (ip), vehicle: saline, evaluated on day 5) was 70, 72, 97, 135, 164, 170, 178 % of control, the T/C (dose: 20.0 mg/kg/injection, schedule: Q01DX001 (ip), vehicle: saline, evaluated on day 7) was 145, 184, 186 % of control and the T/C (dose: 20.0 mg/kg/injection, schedule: Q01DX001 (ip), vehicle: saline, evaluated on day 30) was 97 and 164 % of control [6 of 8 alive]. The T/C (dose: 20.0 mg/kg/injection, schedule: Q01DX001 (ip), vehicle: saline, evaluated on day 33) was 178 % of control, the T/C (dose: 20.0 mg/kg/injection, schedule: Q01DX001 (ip), vehicle: saline, evaluated on day 60) was 135 % of control and the T/C (dose: 20.0 mg/kg/injection, schedule: Q01DX001 (ip), vehicle: saline, evaluated on day 62) was 184 % of control [6 of 8 alive]. For the same molecule, the T/C (dose: 20.0 mg/kg/injection, schedule: Q01DX001 (ip), vehicle: saline, evaluated on day 63) was 145 and 186 % of control, the survivor count (dose: 20.0 mg/kg/injection, schedule: Q01DX001 (ip), vehicle: saline) was 5 of 8 and 6 of 8 (2×) and the T/C (dose: 20.0 mg/kg/injection, schedule: Q04DX003 (ip), vehicle: saline, evaluated on day 5) was 75 and 91 % of control. For the same molecule, the T/C (dose: 20.0 mg/kg/injection, schedule: Q04DX003 (ip), vehicle: saline, evaluated on day 60) was 91 % of control, the survivor count (dose: 20.0 mg/kg/injection, schedule: Q04DX003 (ip), vehicle: saline) was 6 of 8 and the survivor count (dose: 40.0 mg/kg/injection, schedule: Q01DX001 (ip), vehicle: Klucel (hydroxypropylcellulose) (HPC)) was 2 of 10 and 5 of 10. For the same molecule, the T/C (dose: 40.0 mg/kg/injection, schedule: Q01DX001 (ip), vehicle: saline, evaluated on day 5) was 58, 60, 61 (2×), 62, 170 % of control, the T/C (dose: 40.0 mg/kg/injection, schedule: Q01DX001 (ip), vehicle: saline, evaluated on day 7) was 71, 80, 99 % of control and the T/C (dose: 40.0 mg/kg/injection, schedule: Q01DX001 (ip), vehicle: saline, evaluated on day 33) was 170 % of control. For the same molecule, the T/C (dose: 40.0 mg/kg/injection, schedule: Q01DX001 (ip), vehicle: saline, evaluated on day 63) was 99 % of control, the survivor count (dose: 40.0 mg/kg/injection, schedule: Q01DX001 (ip), vehicle: saline) was 2 of 8, 3 of 8, 4 of 8 (2×), 5 of 8, 6 of 8, 7 of 8 and the T/C [2] was 55 and 61 % of control. The survivor count [2] was 3 of 8 and 6 of 8 and the survivor count (dose: 80.0 mg/kg/injection, schedule: Q01DX001 (ip), vehicle: saline) was 1 of 8.
